# Results published in US20240082277A1, “MODIFIED ANTIHISTAMINE COMPOSITION AND ANTIVIRAL TREATMENT” (priority 2022, published 2024).
# Structures can show the parent of a compound that is named as a salt.
# Key:
# [1] = test system: SARS-CoV-2 Omicron (B.1.1.529); assay: microbe, parasite or virus in culture; conditions: Severe acute respiratory syndrome coronavirus 2, VeroE6/TMPRSS2, read-out: % cell viability
# [2] = test system: SARS-CoV-2 Delta (B.1.617.2); assay: microbe, parasite or virus in culture; conditions: Severe acute respiratory syndrome coronavirus 2, VeroE6/TMPRSS2, read-out: % cell viability
structure (smiles),measurement,setting,value
CN(C)CCOC(c1ccccc1)c1ccccc1 [Diphenhydramine hydrochloride],viability at 100.144 µg/mL,[1],20.6%
same,viability at 316.456 µg/mL,[1],35.1%
same,viability at 31.691 µg/mL,[2],111%
same,viability at 100.144 µg/mL,[2],114%
